In all, about 340,000 compounds went through this assay and about 6,200 (1.8%) were called active. The inconclusive results got no clear call from the source; some entries with a clear call stand among them for comparison. Calls follow the shape of the dose curve; as a rule, active = well fitted activation curve with a large enough effect; inconclusive = small, poorly fitted or top-dose-only effect; inactive = no such curve, though single readings can be large or run the other way. Potencies beside an inconclusive call are fits to weak or partial responses and may not hold up.
Assay: A quantitative high throughput screen for small molecules that induce DNA re-replication in SW480 colon adenocarcinoma cells. Also: nearly all actives have a fitted effect of over 55% in size.
Settings: Hoechst DNA content imaging, 48 h; series mostly up to 46.1 µM
In short: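 Image-based read-out: total Hoechst fluorescence of nuclei (405 nm excitation, 500-530 nm emission), with hits raising the fraction of high-intensity nuclei. SW480 colon cells incubated 48 hr with compounds at 37 C.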
Potency is read from the fitted curve at half-maximal effect.

Structure (SMILES) | Potency
S=c1[nH]nc(COc2ccccc2)n1Cc1ccccc1 | inactive
CC(=O)Nc1ccc2c(c1)CCCN2C(=O)c1ccccc1 | inactive
Cc1nn(-c2ccccc2)c(Cl)c1/C=N/Nc1nc2ccccc2n1C | inconclusive: 29.1 µM [activator, single point]
Cc1ccc(NS(=O)(=O)c2cccc(C(=O)NCC(c3cccs3)N(C)C)c2)cc1 (stereo not drawn) | inconclusive: 12.6 µM [activator, single point]
Cc1cc(-c2cc(C)c(N)cc2C)c(C)cc1N | active: 18.4 µM
Cc1ccc(NC(=O)Cn2c(=O)c3cccn3c3ccccc32)c(Cl)c1 | inconclusive: 20.6 µM [activator, single point]
CCCCc1nc2ccccc2c(=O)n1NC(=O)c1c(O)c2ccccc2n(C)c1=O | inconclusive: 6.51 µM [activator, full curve]
CC(Oc1ccc(F)cc1)C(=O)Nc1nc(-c2ccccn2)cs1 (stereo not drawn) | inactive
C[C@]12c3[nH]c4cc(-c5ccco5)ccc4c3CCN1C(=O)[C@@H](CC(=O)NCCC1=CCCCC1)C[C@@H]2C(=O)N1CCCCC1 | inconclusive: 18.4 µM [activator, single point]
COc1ccccc1-c1nnc(NC(=O)c2ccc(S(=O)(=O)N3CCCC3)cc2)o1 | inconclusive: 29.1 µM [activator, single point]
O=c1c2ccccc2cnn1Cc1n[nH]c(=S)n1-c1ccc(F)cc1 | inconclusive: 14.6 µM [activator, single point]
Cc1c(Cl)cccc1NC(=O)C1C2C=CC(C2)C1C(=O)O (stereo not drawn) | inconclusive: 1.64 µM [activator, partial curve, poor fit]
CC(NC(=O)Cc1cccc(C(F)(F)F)c1)c1ccc(F)cc1 (stereo not drawn) | inconclusive: 32.6 µM [activator, partial curve, poor fit]
COC(=O)c1ccccc1NC(=O)COC(=O)CO/N=C(\C)c1ccc2c(c1)OCO2 | inactive
CCCNC1=C(N(C(C)=O)c2cccc(F)c2)C(=O)c2ccccc2C1=O | active: 5.8 µM
Cc1ccc(N=c2ssnc2Cl)cc1 | inconclusive: 29.1 µM [activator, single point]
CC[n+]1c(-c2ccccc2)csc1Nc1c(C)n(C)n(-c2ccccc2)c1=O | inconclusive: 29.1 µM [activator, single point]
CCOc1ccc(CCNC(=O)CS(=O)(=O)Cc2nc(-c3ccccc3F)oc2C)cc1 | inactive
C[C@H](CO)N1C[C@H](C)[C@H](CN(C)S(=O)(=O)c2cn(C)cn2)Oc2ccc(NC(=O)Nc3ccc(C(F)(F)F)cc3)cc2CC1=O | inconclusive: 16.4 µM [activator, single point]
CC(NS(=O)(=O)c1ccccc1)C(c1cccs1)N1CCN(c2ccccc2)CC1 (stereo not drawn) | inactive
COc1ccc2[nH]c3nc(SCc4nnc(-c5ccc(C)cc5)o4)nnc3c2c1 | inconclusive: 29.1 µM [activator, single point]
COc1ccc(C(=O)OCCc2cc3ccccc3c(=O)o2)cc1 | inactive

Structure (SMILES) | Potency
CCn1c(C)[n+](Cc2ccccc2)c2ccc(Cl)cc21 | inactive
Cc1ccc(Cl)c(OCC(=O)NN2CCN(C)CC2)c1 | inconclusive: 6.51 µM [activator, partial curve, poor fit]
CCCS(=O)(=O)c1nnnn1-c1cccc(OC)c1 | inconclusive: 2.91 µM [activator, partial curve, poor fit]
COCC(=O)N1CCC(Oc2ccc(C(=O)NC(C)c3csc(C)n3)cc2)CC1 (stereo not drawn) | inconclusive: 4.11 µM [activator, full curve, poor fit]
Oc1ccc(Br)cc1-c1nc2cnccn2c1NC1CCCC1 | inconclusive: 23.1 µM [activator, single point]
COc1cc2c(cc1NC(=O)Nc1cccc(C)c1)oc1ccccc12 | inconclusive: 23.1 µM [activator, partial curve, poor fit]
CCOc1ccc(/C=N/NC(=S)NC2CC3CC2C2C=CCC32)cc1 (stereo not drawn) | inactive
CC(C)Cc1c2c([nH]c(=S)c1C#N)CCCC2 | active: 13 µM
NS(=O)(=O)c1ccc(CCNc2nc(CN3CCCCC3)nc3sc4c(c23)CCC4)cc1 | inconclusive: 29.1 µM [activator, single point]
COc1ccc(NC2CCCN(C(=O)c3c(C)noc3C)C2)cc1 (stereo not drawn) | inactive
O=C(/C=C/c1c(Cl)cccc1Cl)NCCCn1ccnc1 | inconclusive: 14.6 µM [activator, partial curve, poor fit]
CC[C@@H]1C=C(C)C[C@H](C)C[C@H](OC)[C@H]2O[C@@](O)(C(=O)C(=O)N3CCCC[C@H]3C(=O)O[C@H](/C(C)=C/[C@@H]3CC[C@@H](O)[C@H](OC)C3)[C@H](C)[C@@H](O)CC1=O)[C@H](C)C[C@@H]2OC | inconclusive: 23.1 µM [activator, partial curve, poor fit]
CCn1c(SCc2nc3ccccc3[nH]2)nnc1-c1ccncc1 | inactive
COc1ccc2c(c1)O[C@H](c1ccc3c(c1)OCO3)[C@@H](O)C2=O | inconclusive: 29.1 µM [activator, single point]
CCOC(=O)C1=C(C)NC(C)=C(C(=O)OCC)C1C(=O)OCC(=O)NC(C)c1ccccc1 (stereo not drawn) | active: 7.31 µM
Cc1ccc(Cn2ncc3c(NN)ncnc32)cc1 | inconclusive: 18.4 µM [activator, single point]
CO/N=C\CC(=O)Nc1ccc(Cl)c(Cl)c1 | active: 18.4 µM
COc1ccc(NC(=O)C2=C(C)Nc3nc(CCCO)nn3C2c2ccc(OC)c(OC)c2)cc1 (stereo not drawn) | inconclusive: 4.61 µM [activator, partial curve, poor fit]
COc1ccc(C(=O)Cn2c(Br)nc3c2c(=O)n(C)c(=O)n3C)cc1 | inactive
N#CC(=C(O)CN1CCN(c2ccccc2F)CC1)c1nc(-c2ccccc2)cs1 | inconclusive: 23.1 µM [activator, single point]
O=C1NC[C@H](c2ccccc2)OC(=O)[C@@H](Cc2ccc(F)cc2)C/C=C\C[C@H]1CC(=O)N(CCO)Cc1ccccc1 | inconclusive: 29.1 µM [activator, single point]

Arranged by formula weight (smallest number first): some entries from above.
Structure (SMILES) | Potency
COc1ccc2c(c1)O[C@H](c1ccc3c(c1)OCO3)[C@@H](O)C2=O | inconclusive: 29.1 µM [activator, single point]
COc1ccc(NC2CCCN(C(=O)c3c(C)noc3C)C2)cc1 (stereo not drawn) | inactive
COc1cc2c(cc1NC(=O)Nc1cccc(C)c1)oc1ccccc12 | inconclusive: 23.1 µM [activator, partial curve, poor fit]

Source: PubChem BioAssay AID624297 (National Center for Advancing Translational Sciences (NCATS), 2012)
